For at least one entry, the source does not settle the construct or the ends of the probe. For some assays here: Where a protein sequence is shown, tags need not be part of it.

Amino acid sequences for entries named in this document (tags omitted). Residues count along the entry.
UniProt P08047, 620-713: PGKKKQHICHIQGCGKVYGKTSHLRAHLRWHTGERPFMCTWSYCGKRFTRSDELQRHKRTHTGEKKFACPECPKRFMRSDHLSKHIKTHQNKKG

One data set deals with Sp1 zinc finger domain (UniProt P08047). The data set can be described thus: binding assay. To be noted: reference information in exemplary ZFP data table; source and method not stated.
In data set [1] the test system is T1, SBS design GL-8.3.1 (synthetic).
T1 sequence: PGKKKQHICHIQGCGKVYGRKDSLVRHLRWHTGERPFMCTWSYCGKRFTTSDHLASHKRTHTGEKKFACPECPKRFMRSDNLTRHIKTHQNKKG
The data set can be described thus: binding assay. The conditions noted are these: reference information in exemplary ZFP data table; method not stated.

As usually defined, the Kd is the free concentration of one partner at which half of the binding sites on the other are occupied at equilibrium, for simple one-to-one binding. Higher therefore signals weaker binding. The sequence GGGGCGGGG (double strand) [SP1 site] displayed a Kd with Sp1 zinc finger domain of 25 nM.
Sequence “GAGTGTGTG (double strand) [GL-8.3.1 target]” registered a Kd in data set [1] of 32 nM.
